The source of these data is article PMC4863600.

The target in assay [1] is T1, GyrA::SPA protein (D. radiodurans) (UniProt Q9RT53).
T1 sequence: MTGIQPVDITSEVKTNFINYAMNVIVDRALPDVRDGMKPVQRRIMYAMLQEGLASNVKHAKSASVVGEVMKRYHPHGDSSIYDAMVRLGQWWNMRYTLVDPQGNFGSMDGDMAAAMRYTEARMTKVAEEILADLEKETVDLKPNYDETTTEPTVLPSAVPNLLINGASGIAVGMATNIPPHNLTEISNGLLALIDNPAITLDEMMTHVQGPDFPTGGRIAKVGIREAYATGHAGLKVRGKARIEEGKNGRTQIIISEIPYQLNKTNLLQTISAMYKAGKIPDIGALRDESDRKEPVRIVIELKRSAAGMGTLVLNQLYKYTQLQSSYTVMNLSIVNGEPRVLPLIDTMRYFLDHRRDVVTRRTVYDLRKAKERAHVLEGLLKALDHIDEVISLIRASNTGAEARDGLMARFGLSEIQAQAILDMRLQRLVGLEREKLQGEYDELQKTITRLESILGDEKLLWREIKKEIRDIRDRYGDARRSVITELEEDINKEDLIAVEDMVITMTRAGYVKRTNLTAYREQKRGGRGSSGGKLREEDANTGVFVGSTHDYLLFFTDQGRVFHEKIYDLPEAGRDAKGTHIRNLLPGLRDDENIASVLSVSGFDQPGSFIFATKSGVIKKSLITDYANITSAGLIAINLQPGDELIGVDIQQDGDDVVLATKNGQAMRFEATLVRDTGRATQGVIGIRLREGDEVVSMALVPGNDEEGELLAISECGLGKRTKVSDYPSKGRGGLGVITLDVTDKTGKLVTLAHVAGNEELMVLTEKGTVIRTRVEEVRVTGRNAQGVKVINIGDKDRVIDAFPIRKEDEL
The assay can be described thus: co-IP; D. radiodurans GY14697 (pprA::HA gyrA::SPA) exposed to 3.8 kGy gamma radiation and grown 110 min, fixed with 2% formaldehyde; anti-HA immunoprecipitation with anti-FLAG blot, and anti-FLAG immunoprecipitation with anti-HA blot.

For assay [2], the target named is T2, PprA::HA fusion protein (D. radiodurans) (UniProt O32504).
T2 sequence: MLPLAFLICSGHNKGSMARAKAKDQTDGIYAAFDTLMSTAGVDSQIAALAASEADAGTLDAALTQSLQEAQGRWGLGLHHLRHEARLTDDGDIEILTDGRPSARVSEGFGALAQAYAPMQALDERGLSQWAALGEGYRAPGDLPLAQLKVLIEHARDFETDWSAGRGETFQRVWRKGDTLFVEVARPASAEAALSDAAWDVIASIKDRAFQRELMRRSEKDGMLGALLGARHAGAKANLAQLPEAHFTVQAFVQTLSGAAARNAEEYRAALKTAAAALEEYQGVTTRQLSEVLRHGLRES
Described as above.

In assay [3] the target is T2, PprA::HA fusion protein (D. radiodurans). The assay can be described thus: co-IP; as a2 but nonirradiated D. radiodurans GY14697 (pprA::HA gyrA::SPA) cells, in which PprA::HA is at its basal level.

Results are given in words; binding and its absence hold for the method and conditions named. Binding seen in cells or lysates may run through a third protein. Some entries that bind do so weakly or less than the wild type. Sequences can lack the tags named with a protein.

B1: PprA::HA fusion protein (protein, UniProt O32504 1-300)
chain: T2 sequence
In the case of B1, in assay [1], the binding result is “binds”.

B2: GyrA::SPA protein (protein, UniProt Q9RT53 1-812)
chain: T1 sequence
As for B2, the binding result in assay [2] is reported as “binds”; in assay [3], “no binding (condition: nonirradiated cells)”.
